Measurements from the supplement of paper PMC11732987, “Enantioselective OTUD7B fragment discovery through chemoproteomics screening and high-throughput optimisation” (Communications Chemistry, 2025).
This is one part of the list. The data scatter; read single values as rough.

By UniProt entry, the sequences of proteins in these tests, tags left out. Where a name states a change or a piece, a line headed by the entry shows the natural chain unless it says otherwise. Residues count along the entry.
UniProt A7E2V4, 1084-1110: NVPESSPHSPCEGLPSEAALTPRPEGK
UniProt Q9UGR2: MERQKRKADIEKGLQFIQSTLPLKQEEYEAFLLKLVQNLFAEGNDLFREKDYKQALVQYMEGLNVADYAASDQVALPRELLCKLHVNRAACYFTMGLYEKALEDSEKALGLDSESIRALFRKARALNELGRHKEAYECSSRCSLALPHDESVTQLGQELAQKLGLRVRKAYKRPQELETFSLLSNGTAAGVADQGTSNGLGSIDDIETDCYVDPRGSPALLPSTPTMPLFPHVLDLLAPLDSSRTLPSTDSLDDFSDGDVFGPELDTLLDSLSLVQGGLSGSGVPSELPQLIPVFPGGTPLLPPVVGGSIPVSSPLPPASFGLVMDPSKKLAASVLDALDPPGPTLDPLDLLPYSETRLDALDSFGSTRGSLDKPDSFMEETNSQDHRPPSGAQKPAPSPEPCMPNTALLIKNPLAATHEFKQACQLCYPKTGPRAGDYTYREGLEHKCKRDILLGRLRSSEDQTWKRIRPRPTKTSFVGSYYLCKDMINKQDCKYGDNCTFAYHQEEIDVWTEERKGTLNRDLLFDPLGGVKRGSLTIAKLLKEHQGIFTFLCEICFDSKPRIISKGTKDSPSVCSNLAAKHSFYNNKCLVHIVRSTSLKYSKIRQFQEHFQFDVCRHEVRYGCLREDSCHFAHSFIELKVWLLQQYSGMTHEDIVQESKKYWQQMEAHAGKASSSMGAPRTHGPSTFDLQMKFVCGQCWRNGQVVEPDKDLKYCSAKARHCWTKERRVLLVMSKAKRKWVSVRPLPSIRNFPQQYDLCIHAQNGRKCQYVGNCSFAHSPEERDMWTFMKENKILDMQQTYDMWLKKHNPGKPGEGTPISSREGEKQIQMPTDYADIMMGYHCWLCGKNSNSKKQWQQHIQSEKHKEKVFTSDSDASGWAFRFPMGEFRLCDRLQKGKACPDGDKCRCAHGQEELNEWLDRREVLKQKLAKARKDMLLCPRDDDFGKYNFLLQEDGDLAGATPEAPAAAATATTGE
UniProt Q86UP3: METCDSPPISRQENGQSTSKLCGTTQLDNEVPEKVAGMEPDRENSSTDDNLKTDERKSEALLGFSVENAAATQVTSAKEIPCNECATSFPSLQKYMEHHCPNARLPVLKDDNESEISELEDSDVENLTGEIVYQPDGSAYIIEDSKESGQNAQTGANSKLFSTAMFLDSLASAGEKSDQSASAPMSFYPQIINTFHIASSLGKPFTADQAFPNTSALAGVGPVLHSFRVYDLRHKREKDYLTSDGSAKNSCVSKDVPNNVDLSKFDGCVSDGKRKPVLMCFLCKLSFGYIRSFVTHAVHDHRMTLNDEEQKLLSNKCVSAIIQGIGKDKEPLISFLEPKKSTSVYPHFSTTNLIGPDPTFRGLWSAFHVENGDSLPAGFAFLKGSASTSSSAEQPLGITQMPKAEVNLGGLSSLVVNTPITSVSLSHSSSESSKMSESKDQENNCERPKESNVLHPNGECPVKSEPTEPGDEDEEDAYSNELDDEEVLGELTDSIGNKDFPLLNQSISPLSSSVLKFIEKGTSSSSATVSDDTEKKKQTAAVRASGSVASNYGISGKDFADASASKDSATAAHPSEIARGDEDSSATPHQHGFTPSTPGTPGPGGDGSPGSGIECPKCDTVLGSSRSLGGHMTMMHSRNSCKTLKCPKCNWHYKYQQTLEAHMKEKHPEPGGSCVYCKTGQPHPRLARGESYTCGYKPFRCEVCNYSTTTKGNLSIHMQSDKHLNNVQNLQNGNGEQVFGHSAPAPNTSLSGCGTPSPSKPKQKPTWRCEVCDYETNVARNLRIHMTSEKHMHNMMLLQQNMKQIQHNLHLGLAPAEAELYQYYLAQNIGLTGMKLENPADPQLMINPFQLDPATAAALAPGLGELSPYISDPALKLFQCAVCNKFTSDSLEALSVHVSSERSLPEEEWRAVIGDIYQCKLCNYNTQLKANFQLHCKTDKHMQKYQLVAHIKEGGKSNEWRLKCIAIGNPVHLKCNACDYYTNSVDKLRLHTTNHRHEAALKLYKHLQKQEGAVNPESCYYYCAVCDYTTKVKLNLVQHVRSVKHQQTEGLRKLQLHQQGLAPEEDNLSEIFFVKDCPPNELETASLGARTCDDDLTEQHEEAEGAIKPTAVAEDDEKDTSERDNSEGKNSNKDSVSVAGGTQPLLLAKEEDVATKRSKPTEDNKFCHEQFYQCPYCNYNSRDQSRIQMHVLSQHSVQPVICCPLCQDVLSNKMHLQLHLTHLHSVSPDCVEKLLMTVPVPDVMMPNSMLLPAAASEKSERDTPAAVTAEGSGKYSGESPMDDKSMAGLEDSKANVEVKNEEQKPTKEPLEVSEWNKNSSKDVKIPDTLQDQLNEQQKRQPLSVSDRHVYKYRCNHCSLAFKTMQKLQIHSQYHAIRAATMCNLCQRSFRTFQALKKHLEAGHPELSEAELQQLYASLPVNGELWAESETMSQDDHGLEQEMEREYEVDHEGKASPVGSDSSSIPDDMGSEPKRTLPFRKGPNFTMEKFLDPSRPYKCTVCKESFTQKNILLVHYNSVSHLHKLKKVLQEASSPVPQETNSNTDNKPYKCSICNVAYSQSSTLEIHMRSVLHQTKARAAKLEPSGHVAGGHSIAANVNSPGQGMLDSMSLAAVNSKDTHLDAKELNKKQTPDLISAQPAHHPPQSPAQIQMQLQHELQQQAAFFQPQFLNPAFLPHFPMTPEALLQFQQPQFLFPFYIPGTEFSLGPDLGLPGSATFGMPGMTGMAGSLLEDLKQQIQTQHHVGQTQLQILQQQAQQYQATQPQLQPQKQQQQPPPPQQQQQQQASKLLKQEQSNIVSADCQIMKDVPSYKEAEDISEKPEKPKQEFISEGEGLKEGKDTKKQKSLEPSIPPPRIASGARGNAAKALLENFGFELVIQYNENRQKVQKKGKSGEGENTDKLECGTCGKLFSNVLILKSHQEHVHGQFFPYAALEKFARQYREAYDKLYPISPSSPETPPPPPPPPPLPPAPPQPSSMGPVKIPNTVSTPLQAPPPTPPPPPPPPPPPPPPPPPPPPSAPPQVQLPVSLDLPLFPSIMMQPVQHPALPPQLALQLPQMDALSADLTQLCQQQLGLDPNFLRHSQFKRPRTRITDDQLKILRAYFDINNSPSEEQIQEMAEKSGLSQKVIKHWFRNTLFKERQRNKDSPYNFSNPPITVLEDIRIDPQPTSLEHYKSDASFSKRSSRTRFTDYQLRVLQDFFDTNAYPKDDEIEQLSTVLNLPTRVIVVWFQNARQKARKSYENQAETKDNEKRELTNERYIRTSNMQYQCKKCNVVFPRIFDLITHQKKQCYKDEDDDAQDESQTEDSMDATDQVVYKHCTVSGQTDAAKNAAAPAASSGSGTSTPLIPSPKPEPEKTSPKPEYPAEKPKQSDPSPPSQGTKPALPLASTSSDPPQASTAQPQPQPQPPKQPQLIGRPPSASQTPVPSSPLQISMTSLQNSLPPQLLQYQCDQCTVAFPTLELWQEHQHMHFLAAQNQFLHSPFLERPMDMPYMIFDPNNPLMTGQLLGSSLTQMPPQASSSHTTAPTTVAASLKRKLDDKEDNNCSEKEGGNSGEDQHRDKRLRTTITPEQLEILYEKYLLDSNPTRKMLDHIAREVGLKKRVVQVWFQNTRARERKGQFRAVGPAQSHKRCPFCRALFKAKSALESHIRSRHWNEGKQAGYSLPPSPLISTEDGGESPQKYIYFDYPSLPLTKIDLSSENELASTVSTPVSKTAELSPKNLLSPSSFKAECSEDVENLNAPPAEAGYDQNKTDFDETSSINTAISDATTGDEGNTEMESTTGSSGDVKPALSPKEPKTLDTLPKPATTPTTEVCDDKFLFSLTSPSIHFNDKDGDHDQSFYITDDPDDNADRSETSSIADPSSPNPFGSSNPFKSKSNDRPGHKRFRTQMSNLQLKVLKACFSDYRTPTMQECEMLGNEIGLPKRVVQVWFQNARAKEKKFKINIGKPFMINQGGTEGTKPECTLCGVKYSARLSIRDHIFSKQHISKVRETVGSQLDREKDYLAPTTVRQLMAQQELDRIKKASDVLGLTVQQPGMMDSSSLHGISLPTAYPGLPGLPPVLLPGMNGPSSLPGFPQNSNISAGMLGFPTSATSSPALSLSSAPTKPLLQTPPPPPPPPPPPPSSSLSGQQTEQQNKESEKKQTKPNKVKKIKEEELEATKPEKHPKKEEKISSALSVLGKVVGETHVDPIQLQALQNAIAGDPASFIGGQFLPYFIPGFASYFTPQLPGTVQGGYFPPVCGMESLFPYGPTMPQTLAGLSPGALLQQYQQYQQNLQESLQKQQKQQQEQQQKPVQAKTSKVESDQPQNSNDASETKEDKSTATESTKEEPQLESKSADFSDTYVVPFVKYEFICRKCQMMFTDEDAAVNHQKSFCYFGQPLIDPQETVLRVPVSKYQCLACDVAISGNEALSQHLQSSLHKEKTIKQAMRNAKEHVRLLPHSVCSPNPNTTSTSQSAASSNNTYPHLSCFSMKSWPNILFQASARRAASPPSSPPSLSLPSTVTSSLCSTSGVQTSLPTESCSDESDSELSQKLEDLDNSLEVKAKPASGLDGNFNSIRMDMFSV
UniProt Q8IYH5, 642-662: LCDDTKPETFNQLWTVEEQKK
UniProt Q9HBF4, 210-230: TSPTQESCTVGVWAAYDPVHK
UniProt Q6FIF0: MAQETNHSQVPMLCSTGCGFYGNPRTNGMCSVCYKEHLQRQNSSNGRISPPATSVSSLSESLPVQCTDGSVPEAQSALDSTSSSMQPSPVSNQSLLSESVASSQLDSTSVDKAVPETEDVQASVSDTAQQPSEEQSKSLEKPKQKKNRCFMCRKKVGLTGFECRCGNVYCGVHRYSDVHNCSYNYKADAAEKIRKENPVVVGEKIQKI
UniProt Q6NZY4, 590-609: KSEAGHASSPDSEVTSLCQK
UniProt Q9C0D3, 38-57: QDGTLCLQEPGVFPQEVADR
UniProt Q5SVZ6: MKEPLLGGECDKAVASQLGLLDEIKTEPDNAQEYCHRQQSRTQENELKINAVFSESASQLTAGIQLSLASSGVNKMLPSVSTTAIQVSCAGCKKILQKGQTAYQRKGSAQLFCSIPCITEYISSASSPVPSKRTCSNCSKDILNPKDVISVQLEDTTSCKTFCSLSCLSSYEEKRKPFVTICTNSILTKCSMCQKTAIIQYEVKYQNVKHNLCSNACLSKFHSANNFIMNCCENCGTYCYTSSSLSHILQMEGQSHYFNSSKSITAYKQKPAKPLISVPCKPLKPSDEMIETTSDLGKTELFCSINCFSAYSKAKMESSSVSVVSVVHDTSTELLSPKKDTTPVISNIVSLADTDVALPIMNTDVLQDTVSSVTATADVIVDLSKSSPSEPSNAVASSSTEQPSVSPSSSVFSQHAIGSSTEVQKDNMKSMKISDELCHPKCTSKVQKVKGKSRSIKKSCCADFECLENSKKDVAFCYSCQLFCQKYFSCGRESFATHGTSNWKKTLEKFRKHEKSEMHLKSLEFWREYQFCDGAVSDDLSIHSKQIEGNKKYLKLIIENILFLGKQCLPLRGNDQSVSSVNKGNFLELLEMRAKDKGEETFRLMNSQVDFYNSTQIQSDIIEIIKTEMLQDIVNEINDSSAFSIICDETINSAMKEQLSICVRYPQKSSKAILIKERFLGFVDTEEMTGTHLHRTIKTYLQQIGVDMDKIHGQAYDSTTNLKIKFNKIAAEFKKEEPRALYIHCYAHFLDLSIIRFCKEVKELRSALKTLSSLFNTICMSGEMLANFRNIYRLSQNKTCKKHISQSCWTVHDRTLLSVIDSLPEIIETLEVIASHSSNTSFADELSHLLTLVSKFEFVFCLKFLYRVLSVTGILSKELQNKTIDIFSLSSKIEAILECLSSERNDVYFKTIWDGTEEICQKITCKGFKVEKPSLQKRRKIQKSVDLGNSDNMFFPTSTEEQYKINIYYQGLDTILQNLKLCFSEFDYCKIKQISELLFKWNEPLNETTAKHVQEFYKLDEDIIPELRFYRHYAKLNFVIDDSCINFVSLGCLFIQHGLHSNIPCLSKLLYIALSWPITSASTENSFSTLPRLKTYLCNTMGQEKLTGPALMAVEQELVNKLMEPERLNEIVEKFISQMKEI
UniProt O95218: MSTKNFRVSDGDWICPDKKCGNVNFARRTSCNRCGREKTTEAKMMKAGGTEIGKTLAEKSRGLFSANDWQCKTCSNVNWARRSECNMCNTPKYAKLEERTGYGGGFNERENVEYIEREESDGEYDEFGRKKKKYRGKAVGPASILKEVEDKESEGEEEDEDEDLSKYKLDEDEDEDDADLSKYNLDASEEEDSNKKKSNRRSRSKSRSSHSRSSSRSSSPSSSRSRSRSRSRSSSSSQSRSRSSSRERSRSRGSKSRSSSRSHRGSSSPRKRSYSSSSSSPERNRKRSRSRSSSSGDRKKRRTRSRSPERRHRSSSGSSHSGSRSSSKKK
UniProt Q9H4I2, 582-601: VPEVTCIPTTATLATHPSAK
UniProt O75362, 416-463: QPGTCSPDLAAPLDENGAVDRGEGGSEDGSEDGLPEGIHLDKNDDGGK
UniProt O43257, whole entry, looked up: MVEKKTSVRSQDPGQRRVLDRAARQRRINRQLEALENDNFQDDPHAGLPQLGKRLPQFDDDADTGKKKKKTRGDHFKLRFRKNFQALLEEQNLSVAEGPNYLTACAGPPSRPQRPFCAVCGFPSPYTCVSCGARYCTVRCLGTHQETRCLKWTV
UniProt Q9C0G0, 1228-1247: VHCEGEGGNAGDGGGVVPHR

Columns and labels:
[1] = compound: ClCC(=O)N[C@@H]1CCCc2ccccc12; experiment: log2 mean competition ratio of IA-DTB cysteine labelling (DMSO/compound) (log2 ratio); higher = stronger cysteine engagement by compound; details: treatment time: 4 h, cell line lysate: HEK293T
Description: (§1)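 IA-DTB competitive cysteine chemoproteomics in HEK293T RIPA lysate. Lysates were treated with compound 29 or 30 at 50 or 200 µM for 4 h, then IA-DTB (500 µM, 1 h), trypsin-digested, NeutrAvidin-enriched and analysed by diaPASEF. Competition ratio = intensity DMSO / intensity compound (n=4 treated, n=64 DMSO); binding: mean log2 CR ≥ 1 and p ≤ 0.05 plus QC filters. Target is the cysteine site.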

[2] = compound: ClCC(=O)N[C@H]1CCCc2ccccc12; experiment: as above; details: treatment time: 4 h, cell line lysate: HEK293T
Description: as §1

Target	log2 mean competition ratio ([1]; 50 µM)	log2 mean competition ratio ([1]; 200 µM)	log2 mean competition ratio ([2]; 50 µM)	log2 mean competition ratio ([2]; 200 µM)
ZNF507 C745 (UniProt Q8TCN5)	-0.159	0.0723	-0.0682	0.289
ZCCHC17 C146 (UniProt Q9NP64)	0.16	0.315	0.201	0.174
ZC3HAV1_(C513,C513,C518,C518) (UniProt Q7Z2W4)	-0.0366	-0.22	-0.289	-0.227
ZW10 C39 (UniProt O43264)	-0.245	0.171	-0.76	-0.215
ZSWIM8 C1094 (UniProt A7E2V4)	-0.352	-0.312	-0.562	-0.397
ZC3H7B C940 (UniProt Q9UGR2)	0.101	0.231	0.604	0.321
ZNF609 C1290 (UniProt O15014)	-0.0199	0.0939	0.161	0.165
ZMYM2 C1268 (UniProt Q9UBW7)	0.0601	0.489	-0.709	0.138
ZFHX4 C317 (UniProt Q86UP3)	0.0117	0.0968	-0.0429	-0.0172
ZDBF2 C1575	-0.0506	-0.113	-0.0959	-0.0389
ZFC3H1 C1816 (UniProt O60293)	-0.16	-0.224	-0.187	-0.0634
ZZZ3 C24 (UniProt Q8IYH5)	0.284	-0.0695	-0.000435	0.116
ZNFX1 C738 (UniProt Q9P2E3)	-0.181	0.176	-0.27	0.065
ZFHX4 C2319 (UniProt Q86UP3)	0.646	0.162	0.311	0.057
ZNF609 C345 (UniProt O15014)	-0.000783	0.0799	-0.446	0.0373
ZFYVE1 C217 (UniProt Q9HBF4)	-0.333	-0.109	0.194	-0.233
ZSCAN26 C196 (UniProt Q16670)	-0.107	0.053	-0.0884	0.164
ZNF620 C87	0.187	0.148	0.0337	-0.108
ZNF496 C6	0.175	0.306	0.347	0.252
ZFC3H1 C1587 (UniProt O60293)	-0.24	-0.12	-0.419	0.413
ZNF335 C982 (UniProt Q9H4Z2)	0.113	0.0156	0.0519	-0.0896
ZZZ3 C643 (UniProt Q8IYH5)	-0.0512	-0.122	-0.0431	-0.211
ZNF709 C403(C459)(C515)	0.846	1.68	0.392	1.34
ZNF503 C219	-0.0294	0.556	0.145	0.536
ZDHHC13 C51 (UniProt Q8IUH4)	-0.139	0.144	-0.0233	0.385

Target	log2 mean competition ratio ([1]; 50 µM)	log2 mean competition ratio ([1]; 200 µM)	log2 mean competition ratio ([2]; 50 µM)	log2 mean competition ratio ([2]; 200 µM)
ZNF451 C441 (UniProt Q9Y4E5)	-0.301	-0.299	0.0793	-0.0833
ZMYM2 C663 (UniProt Q9UBW7)	0.128	-0.148	0.0969	-0.323
ZFAND6 C181 (UniProt Q6FIF0)	0.445	0.133	0.278	-0.0874
ZRANB3 C587	-0.238	-0.218	-0.173	-0.21
ZMYM3 C1197 (UniProt Q14202)	-0.213	0.335	-0.219	0.348
ZNF761 C24	-0.203	-0.0346	0.0103	0.106
ZNF239 C167 (UniProt Q16600)	-0.0907	-0.116	0.0271	0.0738
ZCCHC8 C607 (UniProt Q6NZY4)	-0.0675	0.00752	-0.228	0.0576
ZNF654 C45, A0A1B0GWA0	0.14	0.0809	-0.228	-0.0334
ZNF318 C1860 (UniProt Q5VUA4)	0.224	0.059	0.62	0.36
ZDHHC6 C343 (UniProt Q9H6R6)	0.0478	-0.201	0.0317	-0.113
ZNHIT2 C57 (UniProt Q9UHR6)	0.169	-0.0286	0.0927	-0.091
ZYG11B C43 (UniProt Q9C0D3)	-0.459	0.521	-0.372	0.206
ZMYM1 C532 (UniProt Q5SVZ6)	0.154	-0.174	0.0223	-0.119
ZEB1 C503 (UniProt P37275)	-0.0377	0.248	-0.0382	0.253
ZDHHC13 C10 (UniProt Q8IUH4)	-0.257	0.233	-0.183	0.482
ZSCAN21 C241 (UniProt Q9Y5A6)	0.242	-0.0432	0.0221	0.11
ZNF277 C21 (UniProt Q9NRM2)	-0.0246	0.196	-0.0964	0.353
ZDBF2 C410	-0.275	0.149	0.224	0.0373
ZMAT5 C57 (UniProt Q9UDW3)	-0.0143	0.567	-0.715	0.21
ZNF446 C164	0.283	0.00498	-0.236	0.0856
ZEB1 C82 (UniProt P37275)	0.0948	0.331	0.0796	0.062
ZNF318 C2040 (UniProt Q5VUA4)	-0.198	-0.091	0.144	0.086
ZSWIM8 C445 (UniProt A7E2V4)	0.163	0.16	-0.0853	0.291
ZNF687 C1003 (UniProt Q8N1G0)	0.397	0.198	0.406	0.132

Whole records from above. Values in the order: log2 mean competition ratio ([1]; 50 µM)	log2 mean competition ratio ([1]; 200 µM)	log2 mean competition ratio ([2]; 50 µM)	log2 mean competition ratio ([2]; 200 µM)
ZSCAN21 C241 (UniProt Q9Y5A6) in the list: 0.242	-0.0432	0.0221	0.11
ZRANB3 C587 in the list: -0.238	-0.218	-0.173	-0.21
ZFAND6 C181 (UniProt Q6FIF0) in the list: 0.445	0.133	0.278	-0.0874
ZDBF2 C410 in the list: -0.275	0.149	0.224	0.0373

Next part:

Target	log2 mean competition ratio ([1]; 50 µM)	log2 mean competition ratio ([1]; 200 µM)	log2 mean competition ratio ([2]; 50 µM)	log2 mean competition ratio ([2]; 200 µM)
ZNF638 C879 (UniProt Q14966)	-0.145	0.297	0.102	0.161
ZNF445 C215 (UniProt P59923)	-0.229	0.235	0.103	0.058
ZMYM1 C662 (UniProt Q5SVZ6)	-0.105	-0.128	-0.11	-0.0116
ZSWIM9 C403	-0.112	0.096	0.044	0.613
ZNF106 C1069 (UniProt Q9H2Y7)	0.248	0.115	0.422	0.0818
ZNF829 C252	-0.0388	0.321	-0.114	-0.233
ZZEF1 C69 (UniProt O43149)	-0.111	-0.0398	-0.0444	-0.0339
ZNF280C C734 (UniProt Q8ND82)	-0.0675	0.0832	-0.143	0.0282
ZNF576 C29 (UniProt Q9H609)	0.28	0.23	0.00787	0.19
ZRANB2 C15 (UniProt O95218)	-0.0996	0.361	0.187	0.191
ZNRD2 C152	0.1	-0.122	1.03	-0.0942
ZNF644 C1233 (UniProt Q9H582)	0.272	0.319	0.341	0.406
ZFAND3 C32 (UniProt Q9H8U3)	-0.00212	-0.426	0.0972	0.0563
ZNF445 C365 (UniProt P59923)	-0.0953	0.266	-0.718	0.246
ZDHHC18 C375 (UniProt Q9NUE0)	-0.254	0.298	-0.0859	0.291
ZDHHC5 C245 (UniProt Q9C0B5)	0.0247	0.186	0.116	0.151
ZMYND8 C138 (UniProt Q9ULU4)	-0.0479	-0.0151	-0.299	-0.255
ZNF330 C186 (UniProt Q9Y3S2)	0.0364	0.147	-0.102	-0.027
ZNF709 C375			-0.247	
ZFP62 C43	0.0799	-0.127	-0.182	-0.0299
ZNF205 C197	0.255	-0.236	0.0466	-0.0127
ZC3HAV1L C15 (UniProt Q96H79)	0.305	-0.394	0.224	-0.527
ZNF318 C140 (UniProt Q5VUA4)	-0.0326	0.129	-0.242	0.155
ZHX3 C587 (UniProt Q9H4I2)	0.113	-0.0906	-0.167	-0.166
ZNF550 C354	-0.0114	0.256	0.136	0.377

Target	log2 mean competition ratio ([1]; 50 µM)	log2 mean competition ratio ([1]; 200 µM)	log2 mean competition ratio ([2]; 50 µM)	log2 mean competition ratio ([2]; 200 µM)
ZFHX4 C964 (UniProt Q86UP3)		0.0702	-0.256	0.127
ZKSCAN8 C289 (UniProt Q15776)	0.00234	0.131	-0.147	0.0398
ZNF592 C265 (UniProt Q92610)	-0.214	-0.0508	0.316	-0.11
ZNF684 C49	0.00173	0.0667	0.00461	0.0694
ZNF318 C158 (UniProt Q5VUA4)	-0.178	0.176	-0.553	0.00486
ZNF217 C420 (UniProt O75362)	-0.548	-0.396	-0.373	-0.367
ZNHIT1 C140 (UniProt O43257)	0.0375	-0.148	-0.0974	0.00785
ZNF407 C1230 (UniProt Q9C0G0)	-0.3	0.706	-0.185	-0.229
ZMYM1 C10 (UniProt Q5SVZ6)	0.102	0.459	-0.23	0.129
ZNF518A C516	0.23	-0.0902	-0.47	-0.048
ZNHIT3 C42 (UniProt Q15649)	0.0497	-0.464	-0.212	-0.318
ZNF8 C427 (UniProt P17098)	-0.0398	0.158	0.163	-0.191
ZGRF1 C1374 (UniProt Q86YA3)	-0.213	-0.095	-0.192	-0.0778
ZNF462 C2287	0.302	-0.000908	0.288	0.307
ZFPM2 C788 (UniProt Q8WW38)	-0.156		0.122	
ZNF446 C33		-0.227	-0.247	0.0127
ZZEF1 C728 (UniProt O43149)	0.122	0.545	0.14	0.271
ZDBF2 C2333	0.1	0.507	0.205	0.433
ZNF7 C452	0.0213	-0.0441	-0.126	0.493
ZFP91 C520 (UniProt Q96JP5)	0.0865	0.191	-0.139	0.152
ZNF646 C150 (UniProt O15015)	-0.27	-0.0688	-0.354	-0.068
ZMYM3 C557 (UniProt Q14202)	-0.00174	-0.131	0.145	-0.176
ZMYM1 C1098 (UniProt Q5SVZ6)	0.18	0.195	-0.255	-0.0065
ZNF326 C12 (UniProt Q5BKZ1)	-0.109	0.739	0.119	0.658
